Values from PubChem BioAssay AID1224830 (NIAID, 2016).

Aim: 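Host factors that control LPS-induced TNF expression in human macrophages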 (primary screen)
Cell system: human THP-1 monocytic leukaemia cells, TNF dual-luciferase reporter clone, PMA-differentiated to macrophage-like cells
Reagent: siRNA pool against human genes, 50 nM
Time to read-out: LPS for 4 h, given about 3 days after siRNA transfection
Conditions: bacterial LPS (TLR4 ligand), 10 ng/ml
Measured: 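Ratio of firefly to renilla light, scaled to the plate median and expressed as a robust z-score per replicate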
Direction: TNF reporter robust z-score: higher = stronger TNF reporter response to LPS
Active means: 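Each well counts as active if its z-score is over 2.8 or under -1.5; controls are left without a call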
Here is a random part of about 18,000 deposited reagents. About 2,900 of all reagents (16%) were called active. 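Calls are made per well; low scores hint the gene aids the LPS response, high scores that it dampens it.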 Repeated entries: four replicate wells of each siRNA pool.

| gene | TNF reporter robust z-score | activity call |
| --- | --- | --- |
| SOCS3 (GeneID 9021) | 0.24 | inactive |
| SOCS3 (GeneID 9021) | -0.04 | inactive |
| SOCS3 (GeneID 9021) | 0.05 | inactive |
| SOCS3 (GeneID 9021) | 5.01 | active |
| SLC8A1 (GeneID 6546) | 0.58 | inactive |
| SLC8A1 (GeneID 6546) | 0.74 | inactive |
| SLC8A1 (GeneID 6546) | 0.55 | inactive |
| SLC8A1 (GeneID 6546) | 1.12 | inactive |
| MAPK8IP2 (GeneID 23542) | -0.25 | inactive |
| MAPK8IP2 (GeneID 23542) | 1.37 | inactive |
| MAPK8IP2 (GeneID 23542) | -0.37 | inactive |
| MAPK8IP2 (GeneID 23542) | -1.45 | inactive |
| ZGPAT (GeneID 84619) | -0.28 | inactive |
| ZGPAT (GeneID 84619) | 0.25 | inactive |
| ZGPAT (GeneID 84619) | -0.19 | inactive |
| ZGPAT (GeneID 84619) | -0.59 | inactive |
| CLEC4C (GeneID 170482) | 0.01 | inactive |
| CLEC4C (GeneID 170482) | 0.57 | inactive |
| CLEC4C (GeneID 170482) | -0.03 | inactive |
| CLEC4C (GeneID 170482) | 0.23 | inactive |
| PRMT9 (GeneID 90826) | 0.7 | inactive |
| PRMT9 (GeneID 90826) | 0.91 | inactive |
| PRMT9 (GeneID 90826) | 6.03 | active |
| PRMT9 (GeneID 90826) | 6.6 | active |
| SPATS1 (GeneID 221409) | -0.38 | inactive |
| SPATS1 (GeneID 221409) | 1.04 | inactive |
| SPATS1 (GeneID 221409) | -1.16 | inactive |
| SPATS1 (GeneID 221409) | -0.17 | inactive |
| BLOC1S3 (GeneID 388552) | -2.26 | active |
| BLOC1S3 (GeneID 388552) | -1.71 | active |
| BLOC1S3 (GeneID 388552) | -2.04 | active |
| BLOC1S3 (GeneID 388552) | -1.83 | active |
| RAB6B (GeneID 51560) | 1.69 | inactive |
| RAB6B (GeneID 51560) | -1.43 | inactive |
| RAB6B (GeneID 51560) | 1.44 | inactive |
| RAB6B (GeneID 51560) | 1.16 | inactive |
| MAGEA8 (GeneID 4107) | -0.65 | inactive |
| MAGEA8 (GeneID 4107) | -1.26 | inactive |
| MAGEA8 (GeneID 4107) | -1 | inactive |
| MAGEA8 (GeneID 4107) | -1.17 | inactive |
| TATDN3 (GeneID 128387) | -0.38 | inactive |
| TATDN3 (GeneID 128387) | -0.55 | inactive |
| TATDN3 (GeneID 128387) | -1.03 | inactive |
| TATDN3 (GeneID 128387) | 0.26 | inactive |
| CCDC117 (GeneID 150275) | -0.7 | inactive |
| CCDC117 (GeneID 150275) | 0.12 | inactive |
| CCDC117 (GeneID 150275) | -0.39 | inactive |
| CCDC117 (GeneID 150275) | -0.52 | inactive |
| ADAM9 (GeneID 8754) | -0.87 | inactive |
| ADAM9 (GeneID 8754) | -0.86 | inactive |
| ADAM9 (GeneID 8754) | -1.01 | inactive |
| ADAM9 (GeneID 8754) | 1.74 | inactive |
| CT47A9 (GeneID 728042) | -0.16 | inactive |
| CT47A9 (GeneID 728042) | 2.51 | inactive |
| CT47A9 (GeneID 728042) | 1.17 | inactive |
| CT47A9 (GeneID 728042) | 0.89 | inactive |
| KIFBP (GeneID 26128) | -0.44 | inactive |
| KIFBP (GeneID 26128) | -0.67 | inactive |
| KIFBP (GeneID 26128) | -0.17 | inactive |
| KIFBP (GeneID 26128) | 1.73 | inactive |
| ACTMAP (GeneID 284325) | 0.33 | inactive |
| ACTMAP (GeneID 284325) | -0.09 | inactive |
| ACTMAP (GeneID 284325) | 5.6 | active |
| ACTMAP (GeneID 284325) | -0.27 | inactive |
| STAT5B (GeneID 6777) | -0.46 | inactive |
| STAT5B (GeneID 6777) | 0.08 | inactive |
| STAT5B (GeneID 6777) | -0.5 | inactive |
| STAT5B (GeneID 6777) | -0.44 | inactive |
| ARHGEF15 (GeneID 22899) | -0.53 | inactive |
| ARHGEF15 (GeneID 22899) | 0 | inactive |
| ARHGEF15 (GeneID 22899) | -0.9 | inactive |
| ARHGEF15 (GeneID 22899) | -0.62 | inactive |
| ZBTB44 (GeneID 29068) | -0.66 | inactive |
| ZBTB44 (GeneID 29068) | -0.73 | inactive |
| ZBTB44 (GeneID 29068) | -0.47 | inactive |
| ZBTB44 (GeneID 29068) | -0.52 | inactive |
| HBD (GeneID 3045) | -0.55 | inactive |
| HBD (GeneID 3045) | -0.3 | inactive |
| HBD (GeneID 3045) | -1.22 | inactive |
| HBD (GeneID 3045) | -0.51 | inactive |
| C4BPB (GeneID 725) | -1.27 | inactive |
| C4BPB (GeneID 725) | -0.55 | inactive |
| C4BPB (GeneID 725) | -0.04 | inactive |
| C4BPB (GeneID 725) | -1.17 | inactive |
| MARK2 (GeneID 2011) | 0.14 | inactive |
| MARK2 (GeneID 2011) | -0.3 | inactive |
| MARK2 (GeneID 2011) | 0.59 | inactive |
| MARK2 (GeneID 2011) | 1.28 | inactive |
| OPHN1 (GeneID 4983) | 0.64 | inactive |
| OPHN1 (GeneID 4983) | 1.71 | inactive |
| OPHN1 (GeneID 4983) | 1.57 | inactive |
| OPHN1 (GeneID 4983) | 0.57 | inactive |
| PRRT1 (GeneID 80863) | -1.8 | active |
| PRRT1 (GeneID 80863) | -1.97 | active |
| PRRT1 (GeneID 80863) | -1.31 | inactive |
| PRRT1 (GeneID 80863) | -1.73 | active |
| SASS6 (GeneID 163786) | 3.35 | active |
| SASS6 (GeneID 163786) | 4.83 | active |
| SASS6 (GeneID 163786) | 6.46 | active |
| SASS6 (GeneID 163786) | 6.42 | active |
| GLYCTK (GeneID 132158) | -0.59 | inactive |
| GLYCTK (GeneID 132158) | 0.09 | inactive |
| GLYCTK (GeneID 132158) | -0.89 | inactive |
| GLYCTK (GeneID 132158) | 0 | inactive |
| ERAL1 (GeneID 26284) | 2.27 | inactive |
| ERAL1 (GeneID 26284) | 1.39 | inactive |
| ERAL1 (GeneID 26284) | 1.35 | inactive |
| ERAL1 (GeneID 26284) | 1.95 | inactive |
| SHISA5 (GeneID 51246) | -0.9 | inactive |
| SHISA5 (GeneID 51246) | -1.72 | active |
| SHISA5 (GeneID 51246) | -1.07 | inactive |
| SHISA5 (GeneID 51246) | -1.33 | inactive |

In a second layout: entries from further up
{"gene": "GLYCTK (GeneID 132158)", "TNF reporter robust z-score": 0.09, "activity call": "inactive"}
{"gene": "GLYCTK (GeneID 132158)", "TNF reporter robust z-score": -0.89, "activity call": "inactive"}
{"gene": "GLYCTK (GeneID 132158)", "TNF reporter robust z-score": 0, "activity call": "inactive"}
{"gene": "ERAL1 (GeneID 26284)", "TNF reporter robust z-score": 2.27, "activity call": "inactive"}
{"gene": "ERAL1 (GeneID 26284)", "TNF reporter robust z-score": 1.39, "activity call": "inactive"}
